According to patent publication US20120028359A1, “PRODUCTION PROCESS OF GENDER-SPECIFIC SERUM AND BIOMARKER USING THE SERUM” (priority 2009, published 2012):
Marks after values point to notes of the source that are not given here.

Test: Fatty acid contents analysis in gender-specific sera (GC/MSD)
Set-up: species or system bovine
Settings: for fatty acid content in C-MS: castrated male serum; for fatty acid content in FS: female serum; for fatty acid content in MS: male serum

Question: Which “fatty acid content in C-MS” value does the source give for `CCCCCC=CCC=CCCCCCCCC(=O)O` [9,12-octadecadienoic acid (C18:2n-trans), 9,12-octadecadienoic acid] here?
Answer: 1381.56 ± 6.54 mg/mL

Question: And the “fatty acid content in FS” value?
Answer: 1314.35 ± 5.96 mg/mL

Question: And the “fatty acid content in MS” value?
Answer: 1854.53 ± 6.06 mg/mL

Question: With `CCCCCCC=CCCCCCCCC(=O)O` [9-Hexadecenoic acid (C16:1), 9-Hexadecenoic acid] as the compound, how does the “fatty acid content in C-MS” value read?
Answer: 46.01 ± 1.34 mg/mL

Question: What about the “fatty acid content in FS” value of the same compound?
Answer: 47.82 ± 0.92 mg/mL

Question: What about the “fatty acid content in MS” value of the same compound?
Answer: 45.38 ± 1.17 mg/mL

Question: With `CCCCCCCCC=CCCCCCCCC(=O)O` [9-octadecenoic acid (C18:1-cis), 9-octadecenoic acid] as the compound, how does the “fatty acid content in C-MS” value read?
Answer: 225.5 ± 2.61 mg/mL

Question: What about the “fatty acid content in FS” value of the same compound?
Answer: 214.25 ± 2.51 mg/mL

Question: And the “fatty acid content in MS” value?
Answer: 147.47 ± 1.24 mg/mL

Question: With `CCCCCCCCC=CCCCCCCCC(=O)O` [9-octadecenoic acid (C18:1-trans), 9-octadecenoic acid] as the compound, how does the “fatty acid content in C-MS” value read?
Answer: 192.90 ± 1.97 mg/mL

Question: And the “fatty acid content in FS” value?
Answer: 177.37 ± 1.83 mg/mL

Question: And the “fatty acid content in MS” value?
Answer: 198.77 ± 2.32 mg/mL

Question: For `CCCCCCCCCCCCCCCCCCCC(=O)O` [Arachidic acid (C20:0), Arachidic acid], which “fatty acid content in C-MS” value is on record?
Answer: 2.38 ± 0.23 mg/mL

Question: And the “fatty acid content in FS” value?
Answer: 7.17 ± 0.37^a mg/mL

Question: What about the “fatty acid content in MS” value of the same compound?
Answer: 3.25 ± 0.32 mg/mL

Question: For `CCCCC/C=C\C/C=C\C/C=C\C/C=C\CCCC(=O)O` [Arachidonic acid (C20:4n6), Arachidonic acid], which “fatty acid content in C-MS” value is on record?
Answer: 279.90 ± 2.02 mg/mL

Question: What about the “fatty acid content in FS” value of the same compound?
Answer: 234.56 ± 1.47 mg/mL

Question: And the “fatty acid content in MS” value?
Answer: 234.21 ± 0.73 mg/mL

Question: What does the source list for `CCCCCCCCCCCCCCCCCCCCCC(=O)O` [Behenic acid (C22:2), Behenic acid]?
Answer: fatty acid content in C-MS: 75.14 ± 1.09 mg/mL; fatty acid content in FS: 47.90 ± 0.83^a mg/mL; fatty acid content in MS: 36.00 ± 1.25^a mg/mL

Question: What does the source list for `CCCCCCCC(=O)O` [Caprylic acid (C8), Caprylic acid]?
Answer: fatty acid content in C-MS: 0.88 ± 0.14 mg/mL; fatty acid content in FS: 0.46 ± 0.14 mg/mL; fatty acid content in MS: 0.64 ± 0.13 mg/mL

Question: What does the source list for `CCCCCCCCCC(=O)O` [Carpric acid (C10), Carpric acid]?
Answer: fatty acid content in C-MS: 0.80 ± 0.11 mg/mL; fatty acid content in FS: 0.59 ± 0.13 mg/mL; fatty acid content in MS: 1.00 ± 0.19 mg/mL

Question: Which results are given for `CCCCCCCCCCCC(=O)O` [Lauric acid (C12), Lauric acid]?
Answer: fatty acid content in C-MS: 3.78 ± 0.33 mg/mL; fatty acid content in FS: 1.56 ± 0.24 mg/mL; fatty acid content in MS: 3.32 ± 0.17 mg/mL

Question: For `CC/C=C/CCCCCCCCCC(=O)OC` [Methyl E-11-tetradecenoate (C14:1), Methyl E-11-tetradecenoate], which “fatty acid content in C-MS” value is on record?
Answer: 2.76 ± 0.27 mg/mL

Question: And the “fatty acid content in FS” value?
Answer: 1.41 ± 0.20^a mg/mL

Question: What about the “fatty acid content in MS” value of the same compound?
Answer: 2.16 ± 0.21 mg/mL

Question: With `CCCCCCCCCCCCCC(=O)O` [Myristic acid (C14:0), Myristic acid] as the compound, how does the “fatty acid content in C-MS” value read?
Answer: 17.92 ± 0.52 mg/mL

Question: What about the “fatty acid content in FS” value of the same compound?
Answer: 15.05 ± 0.53 mg/mL

Question: And the “fatty acid content in MS” value?
Answer: 16.86 ± 0.33 mg/mL

Question: Which results are given for `CCCCCCCC/C=C\CCCCCCCCCCCCCC(=O)O` [Nervonic acid (C24:1), Nervonic acid]?
Answer: fatty acid content in C-MS: 154.75 ± 1.59 mg/mL; fatty acid content in FS: 90.72 ± 1.02^a mg/mL; fatty acid content in MS: 85.78 ± 1.67^a mg/mL

Question: For `CCCCCCCCCCCCCCCCCCCCCCCC(=O)O` [Tetracosanoic acid (C24:0), Tetracosanoic acid], which “fatty acid content in C-MS” value is on record?
Answer: 66.62 ± 1.07 mg/mL

Question: And the “fatty acid content in FS” value?
Answer: 33.41 ± 0.93^a mg/mL

Question: And the “fatty acid content in MS” value?
Answer: 43.45 ± 1.14 mg/mL

Question: What does the source list for `CCCCCCCCCCCCCCCCCCCCCCC(=O)O` [Tricosanoic acid (C23:0), Tricosanoic acid]?
Answer: fatty acid content in C-MS: 142.86 ± 1.53 mg/mL; fatty acid content in FS: 80.93 ± 0.93^a mg/mL; fatty acid content in MS: 81.84 ± 1.67^a mg/mL

Question: What does the source list for `CCCCCCCCCCCCC(=O)O` [Tridecanoic acid (C13), Tridecanoic acid]?
Answer: fatty acid content in C-MS: 1.39 ± 0.27 mg/mL; fatty acid content in MS: 0.32 ± 0.15 mg/mL

Question: Which “fatty acid content in C-MS” value does the source give for `CCCCCCCCCCC(=O)O` [Undecanoic acid (C11), Undecanoic acid] here?
Answer: 1.13 ± 0.15 mg/mL

Question: And the “fatty acid content in FS” value?
Answer: 0.22 ± 0.15^a mg/mL

Question: And the “fatty acid content in MS” value?
Answer: not detected

Question: With “Eicosadienoic acid [Eicosadienoic acid (C20:2n)]” as the compound, how does the “fatty acid content in C-MS” value read?
Answer: 10.43 ± 0.40 mg/mL

Question: And the “fatty acid content in FS” value?
Answer: 22.48 ± 0.63^a mg/mL

Question: And the “fatty acid content in MS” value?
Answer: 12.81 ± 0.39 mg/mL

Question: What does the source list for “Eicosatrienoic acid [Eicosatrienoic acid (C20:3n3)]”?
Answer: fatty acid content in C-MS: 367.90 ± 3.90 mg/mL; fatty acid content in FS: 351.66 ± 2.90 mg/mL; fatty acid content in MS: 242.55 ± 2.60 mg/mL

Question: For “Eicosenoic acid [Eicosenoic acid (20:1n)]”, which “fatty acid content in C-MS” value is on record?
Answer: 5.36 ± 0.22 mg/mL

Question: And the “fatty acid content in FS” value?
Answer: 7.18 ± 0.20 mg/mL

Question: And the “fatty acid content in MS” value?
Answer: 5.53 ± 0.25 mg/mL
